Test results published in PubChem BioAssay AID651664 (NMMLSC, 2012).
In all, about 1,800 compounds went through this assay and fewer than 10 were called active.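 The calls were made as follows: active = inhibition of granule release above a set limit; inactive = the rest.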 The list shows a part of the results.

Assay: LAMP-1 surface externalization blockers in TALL-104 cells – cell-based, flow cytometry, validation set (AID 651664)
Conditions: TALL-104 LAMP-1 externalization, at 15.2 µM, stronger effect = higher value, stimulated with thapsigargin and PMA

SMILES | inhibition
CCOC(=O)Nc1ccc2c(c1)N(C(=O)CCN1CCN(CCO)CC1)c1ccccc1S2 | inactive: -0.6%
CCCCc1nnc(NC(=O)CC(=O)Nc2ccccc2C(=O)O)s1 | inactive: 4.3%
CC(C)CCn1c(Oc2ccc(Cl)cc2)nc2c1c(=O)n(C)c(=O)n2C | inactive: -1.7%
N#Cc1nc(-c2ccco2)oc1NCCc1ccccc1 | inactive: 0.9%
CCOC(=O)c1c2ccc(OCC(=O)N/N=C/c3ccc(C)cc3)cc2n2ccccc12 | inactive: 1.1%
O=C(Cc1ccccc1)NC(NCCc1ccccc1)C(Cl)(Cl)Cl (stereo not given) | inactive: 5.8%
CCOC(=O)c1c(C)nc2ccc(C)cn12 | inactive: -0.1%
CCn1c(SCC(N)=O)nc2sc3c(c2c1=O)CCCC3 | inactive: 6.4%
CCCN1C(=O)SC(CC(=O)Nc2ccccc2C)C1=O (stereo not given) | inactive: -2.2%
Cc1nc2scc(-c3ccccc3)c2c(=O)n1/N=C/c1ccco1 | inactive: -0.2%
O=C(Nc1ccc(-c2nnc(-c3ccccc3)o2)cc1)c1ccc(Br)o1 | inactive: -0.8%
CCOc1ccc(N2C(=O)CN=C2Nc2ccccc2Cl)cc1 | inactive: -1.6%
S=C(NCc1ccccn1)Nc1ccc(Cl)cc1 | inactive: 0.7%
CCOc1ccc(C(C)=O)cc1CC(C(N)=O)C(N)=O | inactive: 2.9%
Cc1ccc2nc(Nc3nc(-c4ccccc4)cc(=O)[nH]3)nc(C)c2c1 | inactive: 0.7%
Cc1ccc(-n2ncc3c(NCc4ccccc4)ncnc32)cc1 | inactive: -1.8%
CCOc1ccc(-c2nc(N)ncc2Oc2cccc(OC)c2)c(O)c1 | inactive: 2.1%
Cc1cc(OCC(=O)Nn2cnnc2)c(C)cc1Br | inactive: -1.3%
Cc1ccc(NC(=O)CSc2nccn2Cc2ccccc2)cc1C | inactive: 0.1%
O=C(CCn1cccc1)NCc1ccccc1 | inactive: -1.5%
O=C(c1ccccc1)c1nn(-c2cccc(Cl)c2)c2nc(-c3ccccc3)cc(=O)n12 | inactive: 2.8%
N#CC(C(=O)C12CC3CC(CC(C3)C1)C2)c1nc2ccccc2[nH]1 (stereo not given) | inactive: -4.7%
COc1cc(C)nc(OCCNC(=O)COc2ccc(Cl)cc2C)n1 | inactive: -0.8%
O=C(Nc1cccc(-c2nnc(-c3ccccc3)o2)c1)c1ccco1 | inactive: 6.9%
COc1ccc(-c2noc(Cc3cccs3)n2)cc1 | inactive: 0.2%

Some of the entries above, reformatted:

| SMILES | inhibition |
| --- | --- |
| N#Cc1nc(-c2ccco2)oc1NCCc1ccccc1 | inactive: 0.9% |
| CCOC(=O)c1c2ccc(OCC(=O)N/N=C/c3ccc(C)cc3)cc2n2ccccc12 | inactive: 1.1% |
| O=C(Cc1ccccc1)NC(NCCc1ccccc1)C(Cl)(Cl)Cl (stereo not given) | inactive: 5.8% |
| CCOC(=O)c1c(C)nc2ccc(C)cn12 | inactive: -0.1% |

More results

SMILES | inhibition
COc1ccccc1-c1n[nH]c2c1[C@H](C)CC[C@H]2C(C)C | inactive: 0.1%
CCCn1c(SCC(=O)NC2CCCC(C)C2C)n[nH]c1=O (stereo not given) | inactive: -1%
N#Cc1cn(-c2ccccc2)nc1C(=O)c1ccccc1 | inactive: 2.8%
O=C(CCN1CCc2ccccc21)c1ccc2c(c1)OCCO2 | inactive: 2.5%
CC1CCN(c2ccccc2NC(=S)NC(=O)c2ccco2)CC1 | inactive: -1.7%
O=C(NCC1CCN(c2ccc(S(=O)(=O)N3CCOCC3)cc2)CC1)c1ccc(Cl)cc1 | inactive: -2.9%
Oc1ccccc1Oc1ncc(Br)c(N2CCOCC2)n1 | inactive: 1.2%
Cc1ccc(C)c(S(=O)(=O)Nc2ccc(S(=O)(=O)Nc3onc(C)c3C)cc2)c1 | inactive: 0.4%
Oc1ccccc1N=Nc1nc(-c2ccccc2)c(-c2ccccc2)[nH]1 | inactive: -2.4%
O=c1[nH]n(-c2ncnc3c2cnn3-c2ccccc2)c(=O)c2ccccc12 | inactive: -0.6%
CCC(=O)c1ccc(N2CCN(C(=O)COc3ccc(F)cc3)CC2)c(F)c1 | inactive: -4.4%
COc1ccc(OC)c2c1CCC2=O | inactive: 1.5%
COC(=O)COc1ccc2c(-c3cccc([N+](=O)[O-])c3)cc(=O)oc2c1 | inactive: 0%
c1ccc(CN2CCN(c3ncnc4c3[nH]c3ccccc34)CC2)cc1 | inactive: -1.5%
Cc1ccc(C(=O)/C=C2\NCC(C)NC2=O)cc1 (stereo not given) | inactive: -1.4%
NC(=O)NC(=O)CSc1nc(-c2ccccc2)c(-c2ccccc2)n1CC1CCCO1 (stereo not given) | inactive: 3.8%
COC(=O)c1cc2ccc(OC)c(OC)c2c(=O)s1 | inactive: 0.9%
Cc1[nH]c2ccc(-c3nnc(SCC(=O)NCc4ccco4)n3Cc3ccccc3)cc2c1C | inactive: -1.9%
Cc1ccc(-n2ncc3c(=O)n(CC#N)cnc32)cc1C | inactive: 2.4%
CCN(Cc1ccccc1)C(c1ccc(C)cc1)c1nnnn1C(C)(C)CC (stereo not given) | inactive: -2.8%
COC(=O)c1ccc(C(=S)N2CCOCC2)cc1 | inactive: -1.3%
COc1ccc(S(=O)(=O)Nc2nc(C(F)(F)F)cs2)cc1 | inactive: -0.5%
O=C(CSc1nc2c(c(C(F)(F)F)n1)CCc1ccccc1-2)NCc1ccccc1 | inactive: -1%
Nc1cc2nsnc2cc1Br | inactive: -1.1%
COc1ccccc1CN(Cc1cc2c(C)ccc(C)c2[nH]c1=O)Cc1nnnn1Cc1ccco1 | inactive: -1.3%
